Results on one molecule are retold here after patent publication US20220267469A1.

The chains behind the UniProt entries cited, without tags or fusion partners. Where a name states a change or a piece, a line headed by the entry shows the natural chain unless it says otherwise.
UniProt Q64285: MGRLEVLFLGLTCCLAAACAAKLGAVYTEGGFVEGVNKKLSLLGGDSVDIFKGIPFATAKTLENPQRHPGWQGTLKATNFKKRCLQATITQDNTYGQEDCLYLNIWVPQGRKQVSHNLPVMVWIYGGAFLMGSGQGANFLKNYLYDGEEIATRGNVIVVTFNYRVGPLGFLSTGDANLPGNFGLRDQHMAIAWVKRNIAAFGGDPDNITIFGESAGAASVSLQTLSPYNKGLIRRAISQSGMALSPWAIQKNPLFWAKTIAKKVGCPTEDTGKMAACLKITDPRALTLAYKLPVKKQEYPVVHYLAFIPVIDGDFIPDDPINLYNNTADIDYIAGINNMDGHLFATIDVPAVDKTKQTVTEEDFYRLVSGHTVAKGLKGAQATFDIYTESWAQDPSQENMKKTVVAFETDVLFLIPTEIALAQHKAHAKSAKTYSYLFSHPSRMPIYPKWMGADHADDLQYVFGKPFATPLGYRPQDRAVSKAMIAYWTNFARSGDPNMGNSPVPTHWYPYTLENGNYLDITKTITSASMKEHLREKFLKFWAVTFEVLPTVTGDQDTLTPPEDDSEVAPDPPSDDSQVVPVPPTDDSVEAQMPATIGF

No constants are given. Whether binding was seen depends on the method and setting.

The target in this experiment is Mouse BSSL, recombinant (mouse) (UniProt Q64285). Nature of the experiment: SPR steady state, antibody captured by anti-Fab.

B1: AS20 CDR graft hIgG4 S228P (antibody, V domains shown)
VH: QVQLVQSGAEVKKPGASVKVSCKASGYTFTSYNMHWVRQAPGQGLEWIGVIYPGNGDTSYNQKFKGRVTMTRDTSTSTVYMELSSLRSEDTAVYYCARDYYGSSPLGYWGQGTLVTVSS
VL: DIQMTQSPSSLSASVGDRVTITCSASSSISYMHWYQQKPGKAPKLLIYDTSKLASGVPSRFSGSGSGTDFTLTISSLQPEDFATYYCHQRSSYPTFGQGTKLEIKR
As to B1, the binding result is given as “no binding (tested: 800 nM)”.
